Reference: PubChem BioAssay AID624256 (NMMLSC, 2012)
Some of the results follow. Some structures show a salt or complex split into parts, the way the source records it.

Assay: induction of myeloid progenitor differentiation, primary screen, cell-based, flow cytometry, MLPCN library (AID 624256);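 also: cells exposed to compound for four days before flow analysis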
Settings: ER-HoxA9 myeloid progenitors, lysozyme-GFP differentiation, measured here: differentiation confirmed by MAC1 staining, at 10 µM, stronger effect = higher value
`O=[N+]([O-])c1cccc(NC2=NCC(CBr)S2)c1` (stereo not drawn) gave a GFP+ MAC1+ double positive of 0.9%. Work on `O=P(Nc1nc2ccc(Cl)cc2s1)(c1ccccc1)c1ccccc1` yielded a GFP+ MAC1+ double positive of 0.4%. In the case of `Cc1cc(C)cc(OP(C)(=O)Nc2cccc(C(F)(F)F)c2)c1` (stereo not drawn), the GFP+ MAC1+ double positive is reported as 0.5%. In the case of `CN(C)P(=O)(N(C)C)n1c(Nc2ccccc2)nnc1-c1ccccc1`, the GFP+ MAC1+ double positive is reported as 1.7%. `O=C1C(O)=C([N+](=O)[O-])C(=O)C(O)=C1[N+](=O)[O-]` gave a GFP+ MAC1+ double positive of 1.1%. For `CCCC1OP(N)(=O)OCC1CC` (stereo not drawn), the GFP+ MAC1+ double positive was 0.6%. `CC(=O)Nc1ccc([As](=O)(O)O)cc1` gave a GFP+ MAC1+ double positive of 0.4%. `O=C(O)c1ccccc1[As](=O)(O)O` showed a GFP+ MAC1+ double positive of 0.7%. Work on `COc1ccc(OP(C)(=O)Nc2ccccc2Br)cc1` (stereo not drawn) yielded a GFP+ MAC1+ double positive of 0.3%. With `COc1ccccc1OP(C)(=O)Nc1ccc(C)c(C)c1` (stereo not drawn) the GFP+ MAC1+ double positive was 0.4%. In the case of `Cc1ccc(NP(=O)(Oc2ccccc2F)Oc2ccccc2F)nc1`, the GFP+ MAC1+ double positive is reported as 0.4%. For `CN(C(=O)Cc1ccc(Cl)c(Cl)c1)[C@H]1CCCC[C@@H]1N1CCCC1`, the GFP+ MAC1+ double positive was 3.2%. For `Cc1cc(SC(NC(=O)c2ccc(F)cc2)C(Cl)(Cl)Cl)ncn1` (stereo not drawn), the GFP+ MAC1+ double positive was 0.3%. `CCOP(=O)(Nc1ccccc1)OCC` showed a GFP+ MAC1+ double positive of 0.2%. With `CCCCCCCCCCCCCCCC1C[N+](C)(C)CCOP(C)(=O)O1` (stereo not drawn) the GFP+ MAC1+ double positive was 1.3%. `CP(=O)(OCCOc1ccccc1)OCCOc1ccccc1` gave a GFP+ MAC1+ double positive of 0.6%. In the case of `Nc1cccc2ccc([As](=O)(O)O)cc12`, the GFP+ MAC1+ double positive is reported as 1.5%. With `CCN(N=Nc1nonc1N)c1nonc1N` the GFP+ MAC1+ double positive was 0.7%. `Cc1ccc(N/C(=N/P(=O)(N2CCOCC2)N2CCOCC2)N2CCOCC2)cc1` gave a GFP+ MAC1+ double positive of 0.7%. For `CN(C(=O)Cc1ccc(Cl)c(Cl)c1)[C@H]1CCCC[C@H]1N1CCCC1`, the GFP+ MAC1+ double positive was 2.7%. In the case of `COc1ccccc1OP(C)(=O)Nc1ccc(Br)cc1` (stereo not drawn), the GFP+ MAC1+ double positive is reported as 0.3%. `NC(=O)c1cc([N+](=O)[O-])cc([N+](=O)[O-])c1N` showed a GFP+ MAC1+ double positive of 0.4%. In the case of `CN1CCCC(OC(=O)C(c2ccccc2)c2ccccc2)C1` (stereo not drawn), the GFP+ MAC1+ double positive is reported as 1.1%. Work on `Clc1ccc(Cl)c(NC2=NCC(CBr)S2)c1` (stereo not drawn) yielded a GFP+ MAC1+ double positive of 0.1%. With `CN(C)CCOC(=O)C(O)(c1ccccc1)C1CCCC1` (stereo not drawn) the GFP+ MAC1+ double positive was 5.7%. Molecule `Cc1ccc(OP(=O)(Nc2nccs2)Oc2ccc(C)cc2)cc1` has a GFP+ MAC1+ double positive of 0.1%. Work on `COc1ccccc1OP(=O)(Nc1ccc(C)cn1)Oc1ccccc1OC` yielded a GFP+ MAC1+ double positive of 0.2%. For `COc1ccc(OP(C)(=O)Nc2ccccn2)cc1` (stereo not drawn), the GFP+ MAC1+ double positive was 6.4%. With `O=C(NC(Sc1ccncn1)C(Cl)(Cl)Cl)c1ccccc1` (stereo not drawn) the GFP+ MAC1+ double positive was 0.5%. Molecule `Oc1ccccc1CNc1ccccn1` has a GFP+ MAC1+ double positive of 0.7%. In the case of `Cc1c(NP(C)(=O)Oc2ccc(C(C)C)cc2)c(=O)n(-c2ccccc2)n1C` (stereo not drawn), the GFP+ MAC1+ double positive is reported as 0.2%. In the case of `Nc1cc(N)c2nonc2c1[N+](=O)[O-]`, the GFP+ MAC1+ double positive is reported as 0.5%. `CC(C)CC(=O)NC(Sc1ccc(Cl)cc1)C(Cl)(Cl)Cl` (stereo not drawn) gave a GFP+ MAC1+ double positive of 6.8%. With `O=[N+]([O-])c1cc([N+](=O)[O-])c(Nc2ccccn2)c([N+](=O)[O-])c1` the GFP+ MAC1+ double positive was 1.1%. In the case of `O=[N+]([O-])C1C(O)C(O)C([N+](=O)[O-])C(O)C1O` (stereo not drawn), the GFP+ MAC1+ double positive is reported as 1.3%. For `COc1ccccc1OP(C)(=O)Nc1ccc(C)cc1C` (stereo not drawn), the GFP+ MAC1+ double positive was 0.6%. In the case of `CP(=O)(Nc1ccccn1)Oc1ccccc1` (stereo not drawn), the GFP+ MAC1+ double positive is reported as 1.2%. Work on `CCOc1ccc(C2=NCC(CBr)S2)cc1` (stereo not drawn) yielded a GFP+ MAC1+ double positive of 0.1%. `O=[N+]([O-])c1cc([N+](=O)[O-])c(Nc2ccc(Cl)cc2)c([N+](=O)[O-])c1` showed a GFP+ MAC1+ double positive of 0.6%. With `O=P1(Nc2nc3ccc(Cl)cc3s2)COc2ccccc2O1` (stereo not drawn) the GFP+ MAC1+ double positive was 0.7%. With `CC(C)c1ccc(OP(C)(=O)Nc2ccc(SC(F)(F)F)cc2)cc1` (stereo not drawn) the GFP+ MAC1+ double positive was 0.3%. Work on `CC(C)(C)C(=O)NC(Sc1ccccc1)C(Cl)(Cl)Cl` (stereo not drawn) yielded a GFP+ MAC1+ double positive of 0.3%. `CP(=O)(Nc1ccccc1F)Oc1ccccc1` (stereo not drawn) showed a GFP+ MAC1+ double positive of 2%. For `CCc1cc(O)c([N+](=O)[O-])c(C)c1[N+](=O)[O-]`, the GFP+ MAC1+ double positive was 0.5%. `C[C@H]1OP(=O)(Oc2ccccc2)C[C@@H]2O[C@@H]21` (stereo partly drawn) showed a GFP+ MAC1+ double positive of 1.6%. Work on `C[C@@H]1C=CCP(=O)(Oc2ccccc2)O1` (stereo partly drawn) yielded a GFP+ MAC1+ double positive of 0.3%. For `Cc1ccccc1CN(C)C(=O)COC(=O)C(O)(c1ccccc1)c1ccccc1`, the GFP+ MAC1+ double positive was 0.7%. Molecule `O=C(OCCN1CCN(CCOCc2ccccc2)CC1)C(O)(c1ccccc1)c1ccccc1` has a GFP+ MAC1+ double positive of 0.9%. In the case of `COC(=O)C1(C)COP(=O)(NCc2ccccc2)OC1` (stereo not drawn), the GFP+ MAC1+ double positive is reported as 1%. In the case of `O=C(OC1CN2CCC1CC2)c1ccc([N+](=O)[O-])cc1` (stereo not drawn), the GFP+ MAC1+ double positive is reported as 0.8%. `CC(=O)c1ccc(N2CC2c2ccncc2)cc1` (stereo not drawn) showed a GFP+ MAC1+ double positive of 0.2%. `CC(=O)Nc1ccc(Oc2c([N+](=O)[O-])cc([N+](=O)[O-])cc2[N+](=O)[O-])cc1` showed a GFP+ MAC1+ double positive of 0.4%. In the case of `CC(=O)Nc1ccc([As](=O)(O)O)c(O)c1`, the GFP+ MAC1+ double positive is reported as 0.1%. Work on `COc1ccc2c(c1O)-c1c(O)c(OC)cc3c1[C@H](C2)[N+](C)(C)CC3.O=[N+]([O-])c1cc([N+](=O)[O-])c([O-])c([N+](=O)[O-])c1[O-]` yielded a GFP+ MAC1+ double positive of 0.8%. Molecule `Cc1ccc(NP(=O)(Oc2cccc(C)c2)Oc2cccc(C)c2)nc1` has a GFP+ MAC1+ double positive of 0.5%. Molecule `CCN(CC)CCCNc1ccccc1[N+](=O)[O-].O=[N+]([O-])c1cc([N+](=O)[O-])c(O)c([N+](=O)[O-])c1` has a GFP+ MAC1+ double positive of 1%. Work on `c1ccc(-c2nn[nH]n2)c(-c2nn[nH]n2)c1` yielded a GFP+ MAC1+ double positive of 0.2%. For `COc1ccc(OP(C)(=O)Nc2ccc(SC(F)(F)F)cc2)cc1` (stereo not drawn), the GFP+ MAC1+ double positive was 0.3%.
